# In PubChem BioAssay AID1688 (National Center for Advancing Translational Sciences (NCATS), 2009):
# In all, about 220,000 compounds went through this assay and about 2,400 (1.1%) were called active. The shares of active, inactive and inconclusive entries below differ from those in the screen. Calls follow the shape of the dose curve; as a rule, active = well fitted inhibition curve with a large enough effect; inconclusive = small, poorly fitted or top-dose-only effect, or effect the other way; inactive = no such curve, though single readings can be large or run the other way. Potencies beside an inconclusive call are fits to weak or partial responses and may not hold up.
# Test: qHTS Multiplex Assay to Identify Dual Action Probes in a Cell Model of Huntington: Aggregate Formation (GFP); also: nearly all actives have a fitted effect of over 60% in size
# Settings: PC12 HttQ103-GFP aggregates, Acumen cytometry, 40 h; activity change, negative = inhibition: at 46.1 µM (top of the series) unless noted
# Summary of the method: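 Multiplexed with ATP-based cell death, this channel scores GFP aggregates in PC12 cells expressing inducible HTTex1-Q103-GFP. Induction used 100 nM tebufenozide; compounds were tested in concentration series.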
# % is scaled to controls: 0 for no effect and ±100 for the full control effect; potency is read from the fitted curve at half-maximal effect.
SMILES,"activity change, negative = inhibition",Potency
CC(C)(C)c1[nH]c2ccccc2c1/C=N/O,inactive: 3.89%,
O=C1c2ccccc2NC(c2ccc(Cl)cc2Cl)N1O (stereo not drawn),,"inconclusive: 3.98 µM [inhibitor, full curve]"
CCCCCCc1cc2cc(S(=O)(=O)c3ccc(F)c(Cl)c3)c(=O)oc2cc1O,,"inconclusive: 2.82 µM [inhibitor, full curve]"
COCCNC(=O)CSc1c2c(nc3ccc(Cl)cc13)CCCC2,,"inconclusive: 35.5 µM [inhibitor, single point]"
C/C(CC(=O)Nc1ccc(Cl)cc1Cl)=N\NC(=O)C(=O)N1CCCC1,,"inconclusive: 14.1 µM [inhibitor, partial curve, poor fit]"
C(=C\c1nc(N2CCCC2)c2ccccc2n1)/c1ccccc1,,"inconclusive: 0.631 µM [activator, partial curve]"
c1nc(N2CCCC2)c2[nH]cnc2n1,,"inconclusive: 35.5 µM [inhibitor, single point]"
O=C(NCc1ccco1)C(Cc1ccccc1)NS(=O)(=O)c1cccc2nsnc12 (stereo not drawn),,"inconclusive: 0.0891 µM [inhibitor, full curve, poor fit]"
CCC(C)(C(=O)NC1CCCC1)N(C(=O)c1ccccn1)c1ccc(C)cc1 (stereo not drawn),inactive: -5.17%,
O=C(N/N=C1\C/C(=N\NC(=O)c2ccncc2)c2ccccc21)c1ccncc1,,"inconclusive: 14.1 µM [inhibitor, single point]"
Cn1c(O)c(C2=c3ccccc3=NC2=O)[nH]c1=S,inactive: 9.49%,
CCCC1CCC(C2=N/C(=C\c3ccc(OC)c(OC)c3)C(=O)O2)CC1 (stereo not drawn),,"inconclusive: 12.6 µM [activator, partial curve]"
CCOc1ccc2nc(NC(=O)CS(=O)(=O)c3ccc(C)cc3)sc2c1,inactive: -14.1%,
COc1cc(NC(=O)CSc2nc3[nH]ncc3c(=O)n2-c2ccccc2C)cc(OC)c1OC,,"inconclusive: 8.91 µM [activator, partial curve]"
CCOC(=O)C1CCN(c2c(NCc3ccc(C(=O)NCCOC)cc3)c(=O)c2=O)CC1,inactive: 5.34%,
CCCn1nc(NC(=O)c2cccs2)c2cc3ccccc3nc21,,"inconclusive: 15.8 µM [inhibitor, single point]"
COc1ccccc1N1C(=O)CC(Sc2n[nH]c(-c3cccc(C)c3)n2)C1=O (stereo not drawn),,"inconclusive: 35.5 µM [inhibitor, single point]"
O=c1cc(-c2ccccc2)[nH]n1-c1ccc([N+](=O)[O-])cc1,,"inconclusive: 35.5 µM [inhibitor, single point]"
COc1ccc(CSc2nc(C)cc(=O)[nH]2)cc1Br,inactive: -10.2%,
COc1ccccc1-c1nnc2sc(COc3ccc(Cl)cc3Cl)nn12,,"inconclusive: 2.82 µM [inhibitor, single point]"
CCCOc1ccc(C(=O)NC(C)C(=O)O)cc1 (stereo not drawn),inactive: 20.9%,
Cc1ccc(C2CC(C(F)(F)F)n3nc(C(=O)NCc4c(C)nn(C)c4C)c(Cl)c3N2)cc1 (stereo not drawn),,active: 12.6 µM
CC(=O)Nc1nonc1NC(=O)CSC1=NCCS1,,"inconclusive: 0.316 µM [inhibitor, full curve, poor fit]"

SMILES,"activity change, negative = inhibition",Potency
CCOC(=O)N1CCN(c2c(NCCCN(C)c3ccccc3)c(=O)c2=O)CC1,,"inconclusive: 5.62 µM [activator, single point]"
COC(=O)c1ccc2c(=O)n(CCCCCC(=O)O)c(=S)[nH]c2c1,,"inconclusive: 0.501 µM [activator, full curve, poor fit]"
O=C(Nc1cccc(Cl)c1)Nc1nnc(CSCCOc2ccc(Cl)cc2)s1,,"inconclusive: 3.55 µM [inhibitor, single point]"
COc1ccc(NC(=O)C(CC(=O)O)C(C)c2ccccc2)cc1 (stereo not drawn),,"inconclusive: 35.5 µM [activator, partial curve, poor fit]"
CCc1cccc(CC)c1NC(=O)C1CN(S(=O)(=O)c2ccccc2)CCN1S(=O)(=O)c1ccccc1 (stereo not drawn),,"inconclusive: 5.62 µM [inhibitor, single point]"
O=C(Nc1ccccc1)Nc1nnc(CSCc2ccccc2Cl)s1,,"inconclusive: 22.4 µM [inhibitor, single point]"
COc1ccc2c(c1)-c1nc(NC(=O)c3cccs3)sc1CC2,,"inconclusive: 25.1 µM [inhibitor, single point]"
O=C1c2ccccc2C(=O)N1CCCCCc1nc(-c2ccccc2)no1,,"inconclusive: 7.94 µM [inhibitor, partial curve]"
O=C(Nc1ccc2oc(-c3ccccc3)nc2c1)c1ccncc1,inactive: -13.5%,
Cc1sc2nc(SCC(=O)N3CCOCC3)[nH]c(=O)c2c1C,inactive: 13.3%,
O=C(Nc1ccc2nn(-c3ccccc3)nc2c1)c1ccc2c(c1)OCCO2,inactive: -19.7%,
COc1ccc2ccc3c(c2c1)N=C[C@]1(O3)N(C)c2ccccc2C1(C)C,,"inconclusive: 35.5 µM [inhibitor, single point]"
CC1(c2ccc([N+](=O)[O-])cc2)CC(C)(C)N(C(=O)c2ccccc2)c2ccccc21 (stereo not drawn),,"inconclusive: 1 µM [inhibitor, full curve]"
CCOC(=O)Cc1nnc(NC(=O)c2cccc(OCC)c2)s1,,"inconclusive: 11.2 µM [inhibitor, partial curve]"
COc1ccc(OCC(=O)Nc2ccc(N3CCOCC3)c(Cl)c2)cc1,,"inconclusive: 3.16 µM [inhibitor, partial curve]"
N=c1c2c(-c3ccccc3)c(-c3ccccc3)n(Cc3ccco3)c2ncn1CCCN1CCOCC1,,"inconclusive: 35.5 µM [inhibitor, single point]"
COc1ccc(OCc2n(CC(=O)OC3CC(C)CCC3C(C)C)c3ccccc3[n+]2C)cc1 (stereo not drawn),inactive: -19.5% [at 9.22 µM],
CCN(CC)c1ccc(NC(=O)CN2C(=O)CSc3ncccc32)c(C)c1,,"inconclusive: 5.01 µM [inhibitor, full curve]"
Cc1nn(CCc2nn[nH]n2)c2nc(-c3ccc(C4CCCCC4)cc3)cc(C(F)(F)F)c12,inactive: 20.8%,
O=C(CC(Nc1cccc(Cl)c1Cl)C(=O)O)c1ccccc1 (stereo not drawn),inactive: 10% [at 9.22 µM],
CCOC(=O)c1ccc(Cl)c(S(=O)(=O)N2CCCC2)c1,inactive: 2.72%,
Cc1ccc(C)c(OCC(O)CN2CCN(CCN3C(=O)c4cccc5cccc(c45)C3=O)CC2)c1 (stereo not drawn),,"inconclusive: 17.8 µM [inhibitor, single point]"
O=C1C2C3C=CC(C3)C2C(=O)N1Cc1ccc(CN2C(=O)C3C4C=CC(C4)C3C2=O)cc1 (stereo not drawn),,"inconclusive: 12.6 µM [inhibitor, partial curve, poor fit]"

SMILES,"activity change, negative = inhibition",Potency
CCn1cc(C(C)NC(=O)COc2ccc(Cl)cc2C)c(C)n1 (stereo not drawn),,"inconclusive: 35.5 µM [inhibitor, single point]"
CCOc1ccccc1Nc1ncnc2ccccc12,,"inconclusive: 20 µM [inhibitor, partial curve, poor fit]"
Cc1cccc(NC(=O)CSc2nnc([C@@H](N)Cc3ccccc3)o2)c1C,,"inconclusive: 10 µM [activator, partial curve]"
CCc1cc2c(=O)c(-c3ccc4c(c3)OCCO4)c(C)oc2cc1OS(C)(=O)=O,,"inconclusive: 11.2 µM [inhibitor, partial curve]"
CCN(c1ccccc1)c1nc2nonc2nc1NCCO,inactive: 4.06% [at 9.22 µM],
CN(Cc1ccccc1)C(=O)C1CCCN(Cc2cccc(Cl)c2)C1 (stereo not drawn),,"inconclusive: 35.5 µM [inhibitor, single point]"
O=S1(=O)CC(O)C(N=Nc2c(O)n(Cc3ccccc3)c3ccccc23)C1 (stereo not drawn),inactive: -14.8% [at 9.22 µM],
CCc1ccc(OCC(=O)N/N=C2\CC(=O)c3ccccc32)cc1,,"inconclusive: 15.8 µM [inhibitor, single point]"
O=C(ON=C1CCN(S(=O)(=O)c2ccccc2)CC1)c1cccc(Cl)c1,inactive: -12.3%,
O=C(NCc1ccccc1)c1cccc(COc2ccc(Cl)cc2)c1,,"inconclusive: 2.51 µM [inhibitor, single point]"
COc1ccc(CNCC(O)(c2ccccc2)c2ccccc2)cc1OC,,"inconclusive: 17.8 µM [inhibitor, single point]"
C/C(=N\Nc1nc(-c2ccccc2O)nc2ccccc12)c1ccccc1,inactive: -2.75% [at 9.22 µM],
CNc1ccccc1C(C)(C)c1cc(-c2cccc(OC)c2)no1,,"inconclusive: 11.2 µM [inhibitor, partial curve]"
COc1ccccc1NC(=O)CCC(=O)OCc1ccc(Cl)cc1,,"inconclusive: 0.562 µM [activator, full curve]"
CC1CCC(C(=O)c2c(O)c3ccccc3oc2=O)CC1 (stereo not drawn),,"inconclusive: 25.1 µM [inhibitor, single point]"
C/C(=N\NC(=O)c1ccccc1)c1nc2ccccc2n1C,,active: 11.2 µM
CCOC(=O)N1CCC(Nc2c(Nc3cccc(CC)c3)c(=O)c2=O)CC1,,"inconclusive: 22.4 µM [inhibitor, single point]"
COc1ccc(N2CCN(c3ccc(NC(=O)C4CCCCC4)cc3C#N)CC2)cc1,inactive: -1.92%,
CC(=O)[C@]1(O)Cc2c(O)c3c(c(O)c2[C@@H](O[C@H]2C[C@H](N)[C@H](O)[C@H](C)O2)C1)C(=O)c1c(O)cccc1C3=O,,active: 0.631 µM
FC(F)(F)c1cccc(NC(=S)N(CCCN2CCCC2)Cc2cccn2Cc2ccc(Cl)cc2)c1,,"inconclusive: 35.5 µM [inhibitor, single point]"
CC1(C)CC(=O)C=C(NCCO)C1,inactive: 16% [at 9.22 µM],
COc1ccc(CN2CCC(C(=O)N(C)CCc3ccc(OC)c(OC)c3)CC2)c(OC)c1,inactive: 19.4%,

# Three structures already listed, arranged by molar mass, rising:
SMILES,"activity change, negative = inhibition",Potency
CN(Cc1ccccc1)C(=O)C1CCCN(Cc2cccc(Cl)c2)C1 (stereo not drawn),,"inconclusive: 35.5 µM [inhibitor, single point]"
Cc1cccc(NC(=O)CSc2nnc([C@@H](N)Cc3ccccc3)o2)c1C,,"inconclusive: 10 µM [activator, partial curve]"
COc1ccc(N2CCN(c3ccc(NC(=O)C4CCCCC4)cc3C#N)CC2)cc1,inactive: -1.92%,
